Experimental data published in paper PMC8657799.
These are yes or no findings as the source states them, for the method shown. Binding seen in cells or lysates may run through a third protein. A result given as binding can be weak or reduced; the word gives no strength.

Protein sequences, listed by entry. Tags and fused reporters are not part of them. Lines headed by an entry give the natural chain unless they say otherwise; changes in a name come on top.
UniProt A2AGA4: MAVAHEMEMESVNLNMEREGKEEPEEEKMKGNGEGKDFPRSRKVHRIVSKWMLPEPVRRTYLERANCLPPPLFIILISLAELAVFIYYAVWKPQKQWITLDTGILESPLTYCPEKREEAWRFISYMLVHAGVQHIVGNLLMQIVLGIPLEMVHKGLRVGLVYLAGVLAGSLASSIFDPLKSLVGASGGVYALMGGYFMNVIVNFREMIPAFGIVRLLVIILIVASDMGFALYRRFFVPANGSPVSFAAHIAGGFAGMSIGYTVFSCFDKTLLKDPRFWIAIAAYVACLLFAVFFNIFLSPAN
UniProt Q96D31: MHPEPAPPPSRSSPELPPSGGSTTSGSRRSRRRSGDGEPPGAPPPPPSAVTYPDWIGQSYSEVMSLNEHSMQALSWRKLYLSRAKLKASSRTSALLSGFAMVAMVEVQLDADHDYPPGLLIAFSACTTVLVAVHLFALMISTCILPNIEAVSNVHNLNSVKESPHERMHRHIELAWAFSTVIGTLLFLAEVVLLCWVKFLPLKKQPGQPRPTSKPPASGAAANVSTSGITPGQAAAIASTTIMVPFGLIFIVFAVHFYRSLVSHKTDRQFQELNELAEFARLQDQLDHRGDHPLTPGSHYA

Legend:
Test in all cases: co-IP; HA antibody-coupled beads, 2-3 h at 4°C, lysates of HEK293 cells co-expressing 3xHA-RHBDL2 (WT or SA) and V5-hOrai1 forms for 24 h; 1% Triton X-100, 150 mM NaCl, 50 mM Tris-HCl pH 7.4; blotted for V5 and HA; in Figure 7D cells were kept for 5 min before lysis in 2 mM Ca2+ or in Ca2+-free solution with 1 mM EGTA
[1] = biological target: 3xHA-RHBDL2-SA (serine-to-alanine catalytic mutant of RHBDL2) (mouse) (UniProt A2AGA4)
[2] = biological target: RHBDL2 deletion mutant ΔN internal (mouse) (UniProt A2AGA4)
[3] = biological target: RHBDL2 with deletion of the initial 31 amino acids of the cytoplasmic domain (mouse) (UniProt A2AGA4)

| binding [1] | binding [2] | binding [3] | Substance |
| --- | --- | --- | --- |
| binds | – | – | V5-hOrai1 H134V (from UniProt Q96D31 1-301) |
| binds | – | – | V5-hOrai1 F99Y (from UniProt Q96D31 1-301) |
| binds | – | – | V5-hOrai1 H134T (from UniProt Q96D31 1-301) |
| binds | – | – | V5-hOrai1 G98S (from UniProt Q96D31 1-301) |
| binds | – | – | V5-hOrai1 H134S (from UniProt Q96D31 1-301) |
| binds weakly | – | – | V5-hOrai1 R91W (from UniProt Q96D31 1-301) |
| binds weakly | – | – | V5-hOrai1 H134W (from UniProt Q96D31 1-301) |
| binds weakly | – | – | V5-hOrai1 G98C (from UniProt Q96D31 1-301) |
| binds | – | – | V5-hOrai1 H134A (from UniProt Q96D31 1-301) |
| binds | – | – | V5-hOrai1 V102A (from UniProt Q96D31 1-301) |
| binds | binds | binds | V5-hOrai1 (wild type) (from UniProt Q96D31 1-301) |
